Source: patent US12478971B2, “Optical plate controller and reader” (QUIVER HOLDINGS INC., priority 2020, dated 2025)
At least one structure is not confirmed: it was looked up by name or label, or the drawing left a doubt.

System: IPSC-derived cardiomyocyte expressing jRGECO1a calcium sensors, CheRiff actuators, and loaded with BeRST1
Assay: IPSC-derived cardiomyocyte validation assay, simultaneous voltage and calcium imaging on the plate reader
Assay type: cell-based
Details: Nifedipine at 0.3 μM; 3 wells of each concentration; 10-test pulse blue stimulation protocol

## COC(=O)C1=C(C)NC(C)=C(C(=O)OC)C1c1ccccc1[N+](=O)[O-] [Nifedipine]
  voltage action potential waveform and calcium transients (voltage peak amplitude and integrated calcium area): completely extinguished
